Measured data: PubChem BioAssay AID743454 (Peter MacCallum Cancer Centre, 2014)
The deposit covers about 18,000 reagents; shown is an unselected part. 450 of them (2.5%) were called active. 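Single biological run; no consistent viability z cut-off exists, so the class columns, not z-scores, define the calls.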 Reagent sequences are not shown.

Assay: 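Genes whose loss kills vorinostat-resistant colon cancer cells under vorinostat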 (primary screen)
Cells: human HCT116-VR colon cancer cells, selected for vorinostat resistance
Knock-down reagent: siRNA pool against human genes, 40 nM siRNA pool
Duration: vorinostat for 24 h, read-out about 72 h after transfection
Challenge: vorinostat at 2.5 µM final
Detection: 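Cell viability by CellTiter-Fluor and caspase 3/7 activity by luminescence, each scaled to mock wells per plate, duplicates averaged, then robust z-scored over all plates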
Direction: viability robust z-score: higher = more viable cells than screen typical; caspase robust z-score: higher = more caspase 3/7 activity than screen typical
Call rule: 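Hits are knock-downs in viability class RV1/RV2 or caspase class CA1/CA2, excluding ones that killed cells in the no-drug cell-count arm; hits then retested with single siRNAs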

Target gene	PubChem SID	viability hit class	caspase hit class	viability robust z-score	caspase robust z-score	activity call
THUMPD1 (THUMP domain 1 NAT10 acetyltransferase adaptor)	SID134324683	no change	no change	-0.3	-0.06	inactive
PIK3R1 (phosphoinositide-3-kinase regulatory subunit 1)	SID135620606	no change	no change	0.84	0	inactive
RXRB (retinoid X receptor beta)	SID134309895	no change	no change	1.31	-0.3	inactive
MAPK11 (mitogen-activated protein kinase 11)	SID56478748	no change	no change	-0.57	-1.12	inactive
NFS1 (NFS1 cysteine desulfurase)	SID134315891	no change	no change	0.26	-0.24	inactive
IP6K3 (inositol hexakisphosphate kinase 3)	SID135621241	no change	no change	-0.8	-0.22	inactive
DMGDH (dimethylglycine dehydrogenase)	SID134313051	no change	no change	0.27	1.27	inactive
IDH3G	SID134314116	no change	no change	-0.55	2.15	inactive
YOD1 (YOD1 deubiquitinase)	SID152149531	no change	no change	-1.71	-0.46	inactive
KCNG2	SID135621162	no change	no change	0.84	-0.3	inactive
TMEM106C (transmembrane protein 106C)	SID134318449	no change	no change	-0.6	1.14	inactive
IL2RG (interleukin 2 receptor subunit gamma)	SID135621483	no change	no change	-0.08	-0.4	inactive
SAMD15 (sterile alpha motif domain containing 15)	SID152150515	no change	no change	1.25	2.02	inactive
PTPN3 (protein tyrosine phosphatase non-receptor type 3)	SID134314126	no change	no change	0.25	0.29	inactive
DNAAF8 (dynein axonemal assembly factor 8)	SID152150626	no change	no change	0.08	-0.77	inactive
COX6C (cytochrome c oxidase subunit 6C)	SID135622461	no change	no change	-0.96	1.93	inactive
ACTG2 (actin gamma 2, smooth muscle)	SID152153748	no change	no change	-0.12	-1.12	inactive
OR5M3 (olfactory receptor family 5 subfamily M member 3)	SID152151163	no change	no change	0.63	-0.34	inactive
MRPL2 (mitochondrial ribosomal protein L2)	SID134321208	no change	no change	-2.08	3.77	inactive
PTH (parathyroid hormone)	SID135622337	no change	no change	0.92	0.02	inactive
NLGN2 (neuroligin 2)	SID134313693	no change	no change	0.42	-0.25	inactive
OSCAR (osteoclast associated Ig-like receptor)	SID152152795	no change	no change	-0.29	1.39	inactive
ST8SIA2 (ST8 alpha-N-acetyl-neuraminide alpha-2,8-sialyltransferase 2)	SID152156754	no change	no change	-1.84	1.37	inactive
GNAI3 (G protein subunit alpha i3)	SID135620950	no change	no change	0.89	0.77	inactive
TNFRSF4 (TNF receptor superfamily member 4)	SID134313026	no change	no change	-1.75	0.68	inactive
GPC1 (glypican 1)	SID135620809	no change	no change	-0.64	0.57	inactive
AURKAIP1 (aurora kinase A interacting protein 1)	SID134311802	no change	no change	0.86	-0.81	inactive
TMEM79 (transmembrane protein 79)	SID134318942	no change	no change	0.44	0.34	inactive
FXYD4 (FXYD domain containing ion transport regulator 4)	SID152149407	no change	no change	-0.31	-0.9	inactive
SPEM1 (spermatid maturation 1)	SID135625085	no change	no change	-0.06	-0.58	inactive
PCBP3 (poly(rC) binding protein 3)	SID134317433	no change	no change	-2.24	2.51	inactive
ZNF287 (zinc finger protein 287)	SID134312158	no change	no change	0.14	0.04	inactive
TRIM16L (tripartite motif containing 16 like (pseudogene))	SID152154347	no change	no change	0.46	3.97	inactive
SHMT2 (serine hydroxymethyltransferase 2)	SID152150066	no change	no change	-0.3	2.12	inactive
PRAG1 (PEAK1 related, kinase-activating pseudokinase 1)	SID152147410	no change	no change	0.28	1.05	inactive
POLE2 (DNA polymerase epsilon 2, accessory subunit)	SID134322461	no change	no change	0.88	-0.83	inactive
FCRL4 (Fc receptor like 4)	SID134315083	no change	no change	-1.75	-1.27	inactive
LARP6 (La ribonucleoprotein 6, translational regulator)	SID134324923	no change	no change	0.08	3.37	inactive
PRH2 (proline rich protein HaeIII subfamily 2)	SID152154815	no change	no change	0.54	2.44	inactive
PTGIR (prostaglandin I2 receptor)	SID152149756	no change	no change	0.53	3.59	inactive
HAO2 (hydroxyacid oxidase 2)	SID152151776	no change	no change	-0.3	0.3	inactive
UBE3C (ubiquitin protein ligase E3C)	SID135621337	no change	no change	0.76	-0.18	inactive
PDE7B (phosphodiesterase 7B)	SID152149718	no change	no change	0.58	0.76	inactive
SLC52A1	SID135621994	no change	no change	1.3	0.31	inactive
IPMK (inositol polyphosphate multikinase)	SID152147042	no change	no change	-0.62	3.32	inactive
GRM8 (glutamate metabotropic receptor 8)	SID134311063	no change	no change	0.57	-0.5	inactive
IRX5 (iroquois homeobox 5)	SID152154313	no change	no change	-0.09	2.06	inactive
UBA7 (ubiquitin like modifier activating enzyme 7)	SID134323525	no change	no change	-0.87	-1.14	inactive
PLEKHG4 (pleckstrin homology and RhoGEF domain containing G4)	SID152148236	no change	no change	0.34	-0.9	inactive
GALNT18 (polypeptide N-acetylgalactosaminyltransferase 18)	SID152151478	no change	no change	1.04	-0.53	inactive
EPN3 (epsin 3)	SID152151327	no change	no change	1.62	0.73	inactive
MED27 (mediator complex subunit 27)	SID152152214	no change	no change	0.6	-0.12	inactive
CEACAM5 (CEA cell adhesion molecule 5)	SID152155735	no change	no change	1.36	0.45	inactive
BMPR1B (bone morphogenetic protein receptor type 1B)	SID56478926	no change	no change	-0.21	-0.57	inactive
CEACAM7 (CEA cell adhesion molecule 7)	SID152150966	no change	no change	0.38	1.54	inactive
ST7 (suppression of tumorigenicity 7)	SID152156427	no change	no change	-0.2	-0.85	inactive
SLCO1B3	SID135624141	no change	no change	0.24	0.4	inactive
PAPSS2 (3'-phosphoadenosine 5'-phosphosulfate synthase 2)	SID152148635	no change	no change	0.18	0.43	inactive
FMNL2 (formin like 2)	SID152149570	no change	no change	-1.78	1.52	inactive
FADS3 (fatty acid desaturase 3)	SID134313354	no change	no change	-0.89	0.36	inactive
PUM1 (pumilio RNA binding family member 1)	SID135622684	no change	no change	0.45	-0.3	inactive
VDR (vitamin D receptor)	SID152151599	no change	no change	0.26	2.26	inactive
PRRC2C (proline rich coiled-coil 2C)	SID152150707	no change	no change	1.22	-0.36	inactive
SEC14L2 (SEC14 like lipid binding 2)	SID152149863	no change	no change	0.32	-0.46	inactive
SCN7A (sodium voltage-gated channel alpha subunit 7)	SID152155226	no change	no change	-0.33	0.61	inactive
ZC3H3 (zinc finger CCCH-type containing 3)	SID152152198	no change	no change	0.05	0.02	inactive
CCDC158 (coiled-coil domain containing 158)	SID135623702	no change	no change	-1.06	0.06	inactive
CBARP (CACN subunit beta associated regulatory protein)	SID152147870	no change	no change	-0.14	0.88	inactive
REG4 (regenerating family member 4)	SID134317759	no change	no change	-0.46	-1.19	inactive
RRP9	SID152152435	no change	no change	0.34	-0.67	inactive
SLC15A3	SID134312448	no change	no change	1.09	0.13	inactive
ZNF570 (zinc finger protein 570)	SID134319763	no change	no change	-0.05	-1.2	inactive
OR2V2 (olfactory receptor family 2 subfamily V member 2)	SID134329447	no change	no change	0.54	-0.38	inactive

Limited to “caspase robust z-score”, for 7 of the entries above:
ST7 (suppression of tumorigenicity 7) [SID152156427]: -0.85
SLCO1B3 [SID135624141]: 0.4
PAPSS2 (3'-phosphoadenosine 5'-phosphosulfate synthase 2) [SID152148635]: 0.43
FMNL2 (formin like 2) [SID152149570]: 1.52
FADS3 (fatty acid desaturase 3) [SID134313354]: 0.36
PUM1 (pumilio RNA binding family member 1) [SID135622684]: -0.3
VDR (vitamin D receptor) [SID152151599]: 2.26
